# The entries are a selection whose mix differs from that of the whole data set.
# System: Plasmodium falciparum NF54/iGP1_RE9H ulg8 stage V gametocytes
# Test: gametocyte viability (luciferase signal relative to DMSO control) (% of DMSO control); higher = less gametocytocidal activity, active = 50 or less
# Conditions: exposure time: 72 h
# Procedure, shortened: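 Stage V gametocytes of the NF54/iGP1_RE9Hulg8 line (day 12; ~2.5% gametocytemia, 3% hematocrit), in medium containing 0.5% Albumax II, were dispensed into 96-well plates with compounds spotted in nanolitre volumes from 10 mM DMSO stocks, for final concentrations of 10 µM or 1 µM in a single well each. After 72 h at 37 °C, 90 µl from each well was combined with 10 µl D-luciferin (30 mg/ml), and luminescence was measured on an IVIS Lumina II. Viability was expressed against the mean of the DMSO vehicle wells on the same plate.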
smiles,measurement,setting,value
Cc1ccccc1-n1c(Cn2nc(-c3cccc(O)c3)c3c(N)ncnc32)nc2cccc(C)c2c1=O,gametocyte viability,concentration: 1 µM,inactive: 94.8
same,gametocyte viability,concentration: 10 µM,inactive: 91.9
